For part of these data: No signal at the amounts used counts as a negative. Protein sequences can lack the tags named with them. For part of these data: The exact form of at least one protein or probe is not confirmed. For part of these data: Weaker means in comparison with the reference protein, sequence or condition of that experiment. For part of these data: At least one verdict rests on a figure or table, not on a statement of the authors.
Assays:
[1] = target: T1, ETS1 296-441 (human) (UniProt P14921); experiment: ITC; details: no p52, weaker than with p52-DSD; ITC: 25 mM Tris-HCl pH 7.5, 200 mM NaCl, 3 mM TCEP, 8 °C; recombinant protein; residues 296-441; protein details: GST removed (PreScission, pGEX-6P-1)
T1 sequence (looked up): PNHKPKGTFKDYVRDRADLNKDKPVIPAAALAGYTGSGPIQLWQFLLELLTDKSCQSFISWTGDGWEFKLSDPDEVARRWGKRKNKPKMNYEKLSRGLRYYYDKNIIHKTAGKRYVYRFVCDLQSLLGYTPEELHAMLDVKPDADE

[2] = target: T2, p52-RHD (human) (UniProt Q00653); experiment: ITC; details: no ETS1, nearly negligible binding; ITC: 25 mM Tris-HCl pH 7.5, 200 mM NaCl, 3 mM TCEP, 8 °C; recombinant protein; residues 35-329; protein details: GST removed (PreScission, pGEX-6P-1)
T2 sequence (looked up): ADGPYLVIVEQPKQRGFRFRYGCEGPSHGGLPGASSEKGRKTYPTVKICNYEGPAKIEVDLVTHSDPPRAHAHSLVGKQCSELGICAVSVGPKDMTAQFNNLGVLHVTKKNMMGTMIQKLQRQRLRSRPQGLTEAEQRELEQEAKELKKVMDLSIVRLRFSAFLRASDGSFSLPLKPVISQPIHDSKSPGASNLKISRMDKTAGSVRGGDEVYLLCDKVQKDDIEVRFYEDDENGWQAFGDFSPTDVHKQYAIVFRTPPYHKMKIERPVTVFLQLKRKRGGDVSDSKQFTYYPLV

| Sequence | binding result [1] | binding result [2] |
| --- | --- | --- |
| CCCTTCCGGG (double strand) [10 bp -146C>T TERT promoter DNA] | binds more weakly | – |
| GTCCCGACCCCTTCCGGGTCCCCGGC / CGCCGGGGACCCGGAAGGGGTCGGGA [25 bp -146C>T TERT promoter DNA] | binds more weakly | no binding |
